Source: PubChem BioAssay AID504808 (Drosophila RNAi Screening Center, 2011)

Purpose: 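Genes whose loss lifts activity of an E2F-responsive reporter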 (primary screen)
System: Drosophila S2 cells
Knock-down reagent: long dsRNA against Drosophila genes
Measured: 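Firefly luciferase driven by E2F sites, normalised to Renilla luciferase on the same minimal promoter, measured by plate reader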
Scale: E2F firefly: higher = more E2F reporter activity; Renilla normaliser: higher = more normaliser reporter signal
Rule for the call: 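a knock-down counted as active when the firefly/Renilla E2F signal rose above 50%, a threshold chosen arbitrarily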
The deposit covers about 21,000 reagents; shown is an unselected part of those with a known target gene and a result. In the full data, 18 (0.084%) got an active call. 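Raw counts without plate normalisation, one of two replicates; the ratio scores behind the calls were not deposited.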 A plus sign joins genes that one reagent is predicted to hit. No sequences are given here. Not given: the amount of reagent, the time to read-out.

gene,dsRNA,"E2F firefly, rep 1","Renilla normaliser, rep 1",activity call
CG32462,DRSC11851,77574,4277,inactive
nerfin-2 (nervous fingers 2),DRSC14547,1.41e5,5783,inactive
Eno (Enolase),DRSC00750,1.60e5,6194,inactive
Bub1 (Bub1 kinase),DRSC02357,1.00e5,4036,inactive
LamC (Lamin C),DRSC07453,2639,207,inactive
r + CG13012,DRSC19531,1.58e5,7255,inactive
mRpL41 (mitochondrial ribosomal protein L41),DRSC06257,1.05e5,4301,inactive
Ts (Thymidylate synthase),DRSC00795,1.52e5,4852,inactive
TTLL4A (Tubulin tyrosine ligase-like 4A),DRSC02528,92972,3367,inactive
Pdss2 (Decaprenyl diphosphate synthase subunit 2),DRSC11625,82926,3285,inactive
HPS4 (Hermansky-Pudlak Syndrome 4),DRSC06906,1.56e5,5121,inactive
Ank2 (Ankyrin 2),DRSC08894,1.41e5,4643,inactive
Ank2 (Ankyrin 2),DRSC09666,1.00e5,3883,inactive
Ank2 (Ankyrin 2),DRSC10338,97303,4125,inactive
Ank2 (Ankyrin 2),DRSC11278,1.16e5,4252,inactive
Rap2l (Ras-associated protein 2-like),DRSC04646,1.15e5,4073,inactive
CycT (Cyclin T),DRSC11124,37049,2944,inactive
CG7341,DRSC10818,65028,3368,inactive
CG34342,DRSC09756,1.00e5,4094,inactive
CG13933,DRSC08402,71326,3123,inactive
CG12811,DRSC14549,1.42e5,6354,inactive
CG32237,DRSC08312,1.03e5,4571,inactive
CG32237,DRSC08315,97801,4125,inactive
CG3987,DRSC15531,76851,3868,inactive
CG15577,DRSC18065,1.03e5,4882,inactive
scra (scraps),DRSC07679,3208,195,inactive
CG1677,DRSC18116,1.27e5,6006,inactive
Cenp-C (Centromeric protein-C),DRSC14371,1.31e5,8253,inactive
CG14007,DRSC02339,1.24e5,5262,inactive
CG5399,DRSC15791,1.30e5,6728,inactive
alpha-Est2 (alpha-Esterase-2),DRSC12614,1.34e5,6130,inactive
Nazo,DRSC14343,1.12e5,5671,inactive
DIP-alpha (Dpr-interacting protein alpha),DRSC17891,58985,3859,inactive
DIP-alpha (Dpr-interacting protein alpha),DRSC17892,71469,5141,inactive
CG10104,DRSC05964,1.10e5,4107,inactive
CG5346,DRSC15778,1.00e5,5188,inactive
CG34260 + cmpy,DRSC11701,1.24e5,6015,inactive
ClpX (Caseinolytic protease chaperone subunit),DRSC15592,75753,5538,inactive
CG31008,DRSC14028,87226,2475,inactive
CG14088,DRSC10092,1.25e5,5788,inactive
CG2694,DRSC18470,1646,920,inactive
nmdyn-D6,DRSC20355,2.42e5,6583,inactive
CG5863,DRSC15898,1.15e5,5753,inactive
CG6652,DRSC10686,73292,3525,inactive
CG11470,DRSC14313,1.44e5,6997,inactive
CG2157,DRSC19836,1.38e5,5460,inactive
Sac1 (Sac1 phosphatase),DRSC08622,74300,3448,inactive
SNRPG (Small nuclear ribonucleoprotein G),DRSC20207,1.43e5,7892,inactive
CG31789,DRSC01645,1.45e5,5765,inactive
CG44098,DRSC12214,1.51e5,6418,inactive
CG44098,DRSC12327,1.41e5,7733,inactive
CG12268,DRSC14491,1.13e5,6292,inactive
CG34433,DRSC15077,1.22e5,6067,inactive
CG32720,DRSC17529,81121,2518,inactive
Tsp26A (Tetraspanin 26A),DRSC03135,1.40e5,5344,inactive
tum (tumbleweed),DRSC07575,1.05e5,4186,inactive
CG8172,DRSC07089,1.53e5,4688,inactive
CG13083,DRSC02187,1.07e5,4149,inactive
Vha16-4 + CG15614,DRSC07321,1.55e5,5213,inactive
rtet (tetracycline resistance),DRSC14160,73960,3603,inactive
MFS12 (Major Facilitator Superfamily Transporter 12),DRSC07268,3214,213,inactive
Cep164 (centrosomal protein 164),DRSC20163,2.49e5,7351,inactive
dgt6 (dim gamma-tubulin 6),DRSC14424,1896,988,inactive
CG42784,DRSC02534,77655,4006,inactive
CG42784,DRSC02535,80421,104,inactive
Ttc7 (Tetratricopeptide repeat domain 7),DRSC04836,78524,3421,inactive
TwdlO (TweedleO),DRSC16043,1.13e5,8253,inactive
CG15142,DRSC02443,1.10e5,4499,inactive
mfrn (mitoferrin),DRSC15687,1.20e5,6027,inactive
CG17249,DRSC08517,71330,3525,inactive
CSN5 (COP9 signalosome subunit 5),DRSC16592,84364,4793,inactive
CG5721,DRSC06945,72902,3777,inactive
Cln7,DRSC11005,71117,3899,inactive
Scsalpha2 (Succinyl-coenzyme A synthetase alpha subunit 2),DRSC16003,74810,3063,inactive
CG10793,DRSC17760,1.13e5,5379,inactive
"Prosalpha4T2 (Proteasome alpha4 subunit, Testis-specific 2)",DRSC04643,1.16e5,4707,inactive
CG31642,DRSC02919,87187,3725,inactive
park (parkin),DRSC11618,78023,3699,inactive
CG7246,DRSC18422,48624,3644,inactive
"Alg1 (ALG1, chitobiosyldiphosphodolichol beta-mannosyltransferase)",DRSC15297,63002,3586,inactive
MFS15 (Major Facilitator Superfamily Transporter 15),DRSC06523,1.52e5,4763,inactive
CG7988,DRSC16358,1.47e5,7338,inactive
HIPP1 (HP1 and insulator partner protein 1),DRSC11748,83974,3530,inactive
CG9304,DRSC04538,1.13e5,4525,inactive

Ordered by “Renilla normaliser, rep 1” (lowest first): 11 of the entries above
gene,dsRNA,"E2F firefly, rep 1","Renilla normaliser, rep 1",activity call
MFS12 (Major Facilitator Superfamily Transporter 12),DRSC07268,3214,213,inactive
CG32720,DRSC17529,81121,2518,inactive
rtet (tetracycline resistance),DRSC14160,73960,3603,inactive
CG13083,DRSC02187,1.07e5,4149,inactive
tum (tumbleweed),DRSC07575,1.05e5,4186,inactive
CG8172,DRSC07089,1.53e5,4688,inactive
Vha16-4 + CG15614,DRSC07321,1.55e5,5213,inactive
Tsp26A (Tetraspanin 26A),DRSC03135,1.40e5,5344,inactive
CG34433,DRSC15077,1.22e5,6067,inactive
CG12268,DRSC14491,1.13e5,6292,inactive
CG44098,DRSC12327,1.41e5,7733,inactive
